According to PMC6232469:
Where two headings read alike, the source gives them in different places. Results are given in words; binding and its absence hold for the method and conditions named. In cells and extracts the contact can be indirect. Some binding calls cover weakened binding; strength is not graded here. For some assays here: Where a sequence is shown, tags or fusion partners need not be part of it.

Amino acid sequences for entries named in this document (tags omitted). Residues count along the entry.
UniProt P03466: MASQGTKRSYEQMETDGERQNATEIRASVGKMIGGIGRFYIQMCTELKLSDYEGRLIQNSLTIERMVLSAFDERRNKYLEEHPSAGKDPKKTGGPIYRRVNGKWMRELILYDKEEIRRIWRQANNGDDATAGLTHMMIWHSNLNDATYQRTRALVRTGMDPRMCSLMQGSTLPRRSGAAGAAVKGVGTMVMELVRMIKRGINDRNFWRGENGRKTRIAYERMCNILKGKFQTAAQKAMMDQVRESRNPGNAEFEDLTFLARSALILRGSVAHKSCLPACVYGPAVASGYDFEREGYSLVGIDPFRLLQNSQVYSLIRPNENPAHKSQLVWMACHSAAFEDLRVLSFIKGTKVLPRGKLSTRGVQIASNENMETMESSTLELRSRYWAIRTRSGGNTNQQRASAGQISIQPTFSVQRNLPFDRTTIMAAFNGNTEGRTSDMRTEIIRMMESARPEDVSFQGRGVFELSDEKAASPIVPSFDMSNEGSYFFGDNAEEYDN
UniProt Q9NX58, residues 1-167: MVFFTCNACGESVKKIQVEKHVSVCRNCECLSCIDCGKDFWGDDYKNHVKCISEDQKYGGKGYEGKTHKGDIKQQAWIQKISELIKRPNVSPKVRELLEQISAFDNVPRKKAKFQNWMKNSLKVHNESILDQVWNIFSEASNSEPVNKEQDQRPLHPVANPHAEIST

B1: PLSCR1 (Flag-tagged, detected with anti-Flag) (protein, UniProt O15162 1-318)
chain: MDKQNSQMNASHPETNLPVGYPPQYPPTAFQGPPGYSGYPGPQVSYPPPPAGHSGPGPAGFPVPNQPVYNQPVYNQPVGAAGVPWMPAPQPPLNCPPGLEYLSQIDQILIHQQIELLEVLTGFETNNKYEIKNSFGQRVYFAAEDTDCCTRNCCGPSRPFTLRIIDNMGQEVITLERPLRCSSCCCPCCLQEIEIQAPPGVPIGYVIQTWHPCLPKFTIQNEKREDVLKISGPCVVCSCCGDVDFEIKSLDEQCVVGKISKHWTGILREAFTDADNFGIQFPLDLDVKMKAVMIGACFLIDFMFFESTGSQEQKSGVW

Columns and labels:
[1] = biological target: HA-NP (HA-tagged nucleoprotein of A/Puerto Rico/8/1934 H1N1) (influenza A virus A/Puerto Rico/8/1934 (PR8, H1N1)) (UniProt P03466); assay: co-IP
[2] = biological target: HA-NP (HA-tagged nucleoprotein of A/Puerto Rico/8/1934 H1N1) (influenza A virus A/Puerto Rico/8/1934 (PR8, H1N1)) (UniProt P03466); assay: co-IP; remark: listed apart in the source

Molecule	binding [1]	binding [2]
Flag-LYAR N-terminal domain (NTD; amino acids 1 to 167) (from UniProt Q9NX58 1-167) (domain or fragment)	no binding	–
B1	–	binds
